PubChem BioAssay AID1117269 | University of Michigan – 2014
Test: 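Kinome-wide knockdown screen for regulators of TGF-beta reporter output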 (primary screen). System: human A549 lung cancer and 1833 breast cancer (MDA-MB-231-derived) cell lines carrying a stable BTR luciferase reporter. Reagents: siRNA pool against human genes. Duration: 72 h after transfection, then 1 h TGF-beta before the read. Conditions: TGF-beta 10 ng/mL added one hour before luciferin and read-out. Read-out: 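BTR reporter bioluminescence as fold change relative to non-targeting siRNA, averaging triplicates per line; knockdown for 72 h, then TGF-beta at 10 ng/mL 1 h prior to reading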. Direction: fold over scrambled siRNA, A549 and fold over scrambled siRNA, 1833: higher = more reporter light, weaker TGF-beta receptor signalling. Active means: 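Active if a hit in A549 or 1833; a line's hit exceeds an upper quartile-based cutoff on mean log fold values, applied per plate and across the whole screen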. Meaning of the calls: active = hit in at least one line; inactive = hit in neither line.
The deposit covers 714 reagents; this is an unselected part. 49 of them (6.9%) were called active. 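Active means a hit in at least one line; per-line hit columns show which; some siRNA pools appear more than once.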 No sequences are given here. The record does not give: the amount of reagent.

gene knocked down	fold over scrambled siRNA, A549	fold over scrambled siRNA, 1833	hit in A549	hit in 1833	call
TEK (TEK receptor tyrosine kinase)	2.81	4.73	not a hit in A549	not a hit in 1833	inactive
CAMK2N1 (calcium/calmodulin dependent protein kinase II inhibitor 1)	0.627	1.27	not a hit in A549	not a hit in 1833	inactive
EPHB6 (EPH receptor B6)	1.54	11.5	not a hit in A549	hit in 1833	
CDK5R1 (cyclin dependent kinase 5 regulatory subunit 1)	0.444	1.37	not a hit in A549	not a hit in 1833	inactive
PKN1 (protein kinase N1)	1.05	1.93	not a hit in A549	not a hit in 1833	inactive
PFKFB3 (6-phosphofructo-2-kinase/fructose-2,6-biphosphatase 3)	0.804	1.47	not a hit in A549	not a hit in 1833	inactive
GOLGA5 (golgin A5)	2.9	4.93	not a hit in A549	not a hit in 1833	inactive
DYRK2 (dual specificity tyrosine phosphorylation regulated kinase 2)	5.13	12.1	not a hit in A549	hit in 1833	
DUSP21 (dual specificity phosphatase 21)	2.81	3.1	not a hit in A549	not a hit in 1833	inactive
PIP4K2A (phosphatidylinositol-5-phosphate 4-kinase type 2 alpha)	2.31	2.19	not a hit in A549	not a hit in 1833	inactive
CSNK1A1 (casein kinase 1 alpha 1)	5.74	2.63	hit in A549	not a hit in 1833	active
MERTK (MER proto-oncogene, tyrosine kinase)	0.389	2.27	not a hit in A549	not a hit in 1833	inactive
NEK5 (NIMA related kinase 5)	5.14	4.79	not a hit in A549	not a hit in 1833	inactive
EPHA4 (EPH receptor A4)	1.38	2.14	not a hit in A549	not a hit in 1833	inactive
IGF2R (insulin like growth factor 2 receptor)	1.97	2.63	not a hit in A549	not a hit in 1833	inactive
PDK3 (pyruvate dehydrogenase kinase 3)	1.44	2.27	not a hit in A549	not a hit in 1833	inactive
CDK12 (cyclin dependent kinase 12)	1.17	8.11	not a hit in A549	not a hit in 1833	inactive
CLK2 (CDC like kinase 2)	0.875	1.37	not a hit in A549	not a hit in 1833	inactive
TBK1 (TANK binding kinase 1)	0.594	1.37	not a hit in A549	not a hit in 1833	inactive
DCLK1 (doublecortin like kinase 1)	1.33	1.43	not a hit in A549	not a hit in 1833	inactive
JAK1 (Janus kinase 1)	4.01	3.67	not a hit in A549	not a hit in 1833	inactive
RPS6KB2 (ribosomal protein S6 kinase B2)	1.22	1.13	not a hit in A549	not a hit in 1833	inactive
MAP4K3 (mitogen-activated protein kinase kinase kinase kinase 3)	0.905	1.57	not a hit in A549	not a hit in 1833	inactive
AURKB (aurora kinase B)	0.573	1.26	not a hit in A549	not a hit in 1833	inactive
MPP2 (MAGUK p55 scaffold protein 2)	2.42	1.71	not a hit in A549	not a hit in 1833	inactive
PFKFB1 (6-phosphofructo-2-kinase/fructose-2,6-biphosphatase 1)	0.74	0.63	not a hit in A549	not a hit in 1833	inactive
CHEK2 (checkpoint kinase 2)	3.39	2.07	not a hit in A549	not a hit in 1833	inactive
RYK (receptor like tyrosine kinase)	1.83	2.47	not a hit in A549	not a hit in 1833	inactive
DAPK1 (death associated protein kinase 1)	1.57	1.29	not a hit in A549	not a hit in 1833	inactive
PDK1 (pyruvate dehydrogenase kinase 1)	1.14	3.62	not a hit in A549	not a hit in 1833	inactive
BMPR2 (bone morphogenetic protein receptor type 2)	8.06	11.7	hit in A549	hit in 1833	active
PIP4K2C (phosphatidylinositol-5-phosphate 4-kinase type 2 gamma)	1.49	3	not a hit in A549	not a hit in 1833	inactive
TTBK1 (tau tubulin kinase 1)	3.57	6.73	not a hit in A549	not a hit in 1833	inactive
PIK3R4 (phosphoinositide-3-kinase regulatory subunit 4)	3.28	3.98	not a hit in A549	not a hit in 1833	inactive
PRKAB2 (protein kinase AMP-activated non-catalytic subunit beta 2)	1.38	1.16	not a hit in A549	not a hit in 1833	inactive
PDPK1 (3-phosphoinositide dependent protein kinase 1)	1.81	1.05	not a hit in A549	not a hit in 1833	inactive
GRK1 (G protein-coupled receptor kinase 1)	4.9	45.2	not a hit in A549	hit in 1833	
PDGFRA (platelet derived growth factor receptor alpha)	3.76	0.963	not a hit in A549	not a hit in 1833	inactive
EPHB4 (EPH receptor B4)	12.9	7.29	hit in A549	not a hit in 1833	active
GUCY2D (guanylate cyclase 2D, retinal)	0.913	1.73	not a hit in A549	not a hit in 1833	inactive
MAP3K14 (mitogen-activated protein kinase kinase kinase 14)	3.62	7	not a hit in A549	not a hit in 1833	inactive
WNK1 (WNK lysine deficient protein kinase 1)	1.43	3.48	not a hit in A549	not a hit in 1833	inactive
GCK (glucokinase)	1.5	1.13	not a hit in A549	not a hit in 1833	inactive
NEK7 (NIMA related kinase 7)	4	5.19	not a hit in A549	not a hit in 1833	inactive
CDK2 (cyclin dependent kinase 2)	1.33	3.52	not a hit in A549	not a hit in 1833	inactive
RIPK2 (receptor interacting serine/threonine kinase 2)	3.44	3.13	not a hit in A549	not a hit in 1833	inactive
PHKA2 (phosphorylase kinase regulatory subunit alpha 2)	3.71	6.2	not a hit in A549	not a hit in 1833	inactive
FGFR4 (fibroblast growth factor receptor 4)	1.48	6.25	not a hit in A549	not a hit in 1833	inactive
HIPK3 (homeodomain interacting protein kinase 3)	1.76	0.857	not a hit in A549	not a hit in 1833	inactive
N4BP2 (NEDD4 binding protein 2)	2.62	5.67	not a hit in A549	not a hit in 1833	inactive
ROCK1 (Rho associated coiled-coil containing protein kinase 1)	3.67	6.42	not a hit in A549	not a hit in 1833	inactive
CDKN2B (cyclin dependent kinase inhibitor 2B)	1.24	3.05	not a hit in A549	not a hit in 1833	inactive
HASPIN (histone H3 associated protein kinase)	3.48	2.93	not a hit in A549	not a hit in 1833	inactive
SPHK1 (sphingosine kinase 1)	0.743	1.94	not a hit in A549	not a hit in 1833	inactive
SYK (spleen associated tyrosine kinase)	0.905	1.4	not a hit in A549	not a hit in 1833	inactive
MET (MET proto-oncogene, receptor tyrosine kinase)	3.52	0.593	not a hit in A549	not a hit in 1833	inactive
GUK1 (guanylate kinase 1)	1.57	3.05	not a hit in A549	not a hit in 1833	inactive

An excerpt from above, reduced to “hit in 1833”:
PDK3 (pyruvate dehydrogenase kinase 3): not a hit in 1833
CDK12 (cyclin dependent kinase 12): not a hit in 1833
CLK2 (CDC like kinase 2): not a hit in 1833
